Values of other authors in US8241397B2, “Adsorptive gas sampler using ionic nano-droplets” (Honeywell International Inc., priority 2008, dated 2012).
Read-outs that look alike come from different tables or passages of the source.

| SMILES | Capturing Efficiency (%) (concentration 50 ppm, solvent sprayed Water, Richards US 4,095,962) | Capturing Efficiency (%) (concentration 10 ppt, solvent sprayed Water/MeOH, Fenn US 2004/0023411A1) |
| --- | --- | --- |
| S1SSSSSSS1 [Sulfur] | than 99% |  |
| Cn1c(=O)c2c(ncn2C)n(C)c1=O [Caffeine, reference compound] |  | than 96% |
